These are yes or no findings as the source states them, for the method shown.
Biological target: T1, CRABS CLAW (CRC) (Arabidopsis thaliana (Col)) (UniProt Q8L925)
T1 sequence: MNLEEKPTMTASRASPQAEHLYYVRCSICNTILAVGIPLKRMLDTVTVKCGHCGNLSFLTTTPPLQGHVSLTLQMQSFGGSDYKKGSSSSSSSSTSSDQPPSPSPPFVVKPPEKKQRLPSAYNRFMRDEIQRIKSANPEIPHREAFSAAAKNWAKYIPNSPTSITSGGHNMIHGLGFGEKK
Test: two-hybrid; bait and prey constructs in pDEST vectors co-transformed into MaV203 yeast; double transformants selected on -Trp-Leu SD media; survival test on -Trp-Leu-His SD media

Protein sequences, listed by entry. Tags and fused reporters are not part of them.
UniProt P17839: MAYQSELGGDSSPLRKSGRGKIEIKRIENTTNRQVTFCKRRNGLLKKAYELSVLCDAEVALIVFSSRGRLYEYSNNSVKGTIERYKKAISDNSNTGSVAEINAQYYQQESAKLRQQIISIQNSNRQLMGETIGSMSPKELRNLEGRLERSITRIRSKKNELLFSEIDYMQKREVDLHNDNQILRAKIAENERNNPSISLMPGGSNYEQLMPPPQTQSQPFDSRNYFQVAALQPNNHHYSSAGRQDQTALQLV

“AGAMOUS (AG) (from UniProt P17839 1-252)” was tested, and the binding was “no binding”.

Source: article PMC6289996
